No constants are given. Whether binding was seen depends on the method and setting. In cells and extracts the contact can be indirect. These calls come from enrichment with a bait or labelling near it, and not all partners need be listed.
T1: Clr6p (S. pombe) (S. pombe) (UniProt O59702)
T1 sequence: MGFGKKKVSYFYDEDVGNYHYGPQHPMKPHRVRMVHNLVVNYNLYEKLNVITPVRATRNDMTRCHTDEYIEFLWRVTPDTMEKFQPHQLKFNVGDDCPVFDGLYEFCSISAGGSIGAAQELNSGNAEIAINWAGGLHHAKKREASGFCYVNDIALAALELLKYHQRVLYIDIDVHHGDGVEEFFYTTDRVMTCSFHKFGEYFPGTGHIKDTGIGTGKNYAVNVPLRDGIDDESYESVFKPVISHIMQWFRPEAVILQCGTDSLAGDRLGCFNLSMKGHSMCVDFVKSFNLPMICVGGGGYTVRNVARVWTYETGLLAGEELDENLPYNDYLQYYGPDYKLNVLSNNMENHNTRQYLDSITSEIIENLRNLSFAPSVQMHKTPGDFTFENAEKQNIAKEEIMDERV

Protein sequences, listed by entry. Tags and fused reporters are not part of them.
UniProt Q9C0X6: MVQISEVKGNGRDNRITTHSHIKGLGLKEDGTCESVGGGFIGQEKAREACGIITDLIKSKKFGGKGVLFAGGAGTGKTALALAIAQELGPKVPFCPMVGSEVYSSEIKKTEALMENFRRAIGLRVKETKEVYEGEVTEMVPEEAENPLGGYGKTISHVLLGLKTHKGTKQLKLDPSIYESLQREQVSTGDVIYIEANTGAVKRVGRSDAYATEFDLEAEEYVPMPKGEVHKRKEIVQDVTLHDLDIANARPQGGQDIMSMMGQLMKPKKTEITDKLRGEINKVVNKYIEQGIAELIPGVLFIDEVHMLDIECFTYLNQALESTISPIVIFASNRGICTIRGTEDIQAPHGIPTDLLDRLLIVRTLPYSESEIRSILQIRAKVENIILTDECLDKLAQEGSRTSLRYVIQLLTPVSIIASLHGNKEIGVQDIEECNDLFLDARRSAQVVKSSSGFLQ

T2: IES6 (S. pombe) (S. pombe) (UniProt Q9UTE8)
T2 sequence: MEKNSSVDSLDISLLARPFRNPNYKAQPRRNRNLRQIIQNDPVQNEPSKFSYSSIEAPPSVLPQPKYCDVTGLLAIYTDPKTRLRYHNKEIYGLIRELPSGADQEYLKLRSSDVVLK

T3: Sp_Png2 (S. pombe) (UniProt O74736)
T3 sequence: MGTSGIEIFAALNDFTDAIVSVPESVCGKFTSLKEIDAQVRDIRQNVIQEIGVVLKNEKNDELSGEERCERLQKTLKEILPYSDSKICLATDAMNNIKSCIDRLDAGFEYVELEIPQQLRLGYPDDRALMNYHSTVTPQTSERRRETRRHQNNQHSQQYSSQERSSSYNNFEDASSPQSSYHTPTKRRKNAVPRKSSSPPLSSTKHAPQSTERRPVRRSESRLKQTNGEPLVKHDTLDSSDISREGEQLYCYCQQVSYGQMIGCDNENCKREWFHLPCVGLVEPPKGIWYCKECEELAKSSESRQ

B1: Sp_Pst3p (protein, UniProt O74755 1-1154)
chain: MDVMNVPVDSERDNPGDKVETQSDKNHLPKASPSQSQSPVNTSLHNGDGKDNGVATEPVENKQILSERSVTRDDYEKGKTIVSSLALSSISGKDGSISSQNAEGLSSSSNRPLDVNDALSYLELVKYYFSERREIYNRFLEIMRDFKSQALDTLGVINRVSELFNGYPQLIEGFNTFLPSGYKIEVQLDSSNTSVVRVGTPMHPLPQQGVQSTLPVAPSNEDQRTMESTSPTDSQPQPSAPNLVSSTENEKPRVDFNYAIAYMNKVKARYPPNSDTYMEFLGVLRTYQKAQKSIFEVRARVAEIFKDSPDLLEEFKLFLPDNVDSTEPSTPNVQKSPNRLPPVGNFSLPPSAPVREKRNRPAHSAQISRSISKTSRMYRQTAEEPLNSYSLHVYPQKITAPTSPYAATQEELLAFTTIRQHLPDTLAFHKFLELLHLYREKLLDKTELLNSFSKLVRNDNLTLWFSEFIRWSDNPILVKNEPVDERVYLPETFECISLTYRKLPDSWKQDKCSGRDDLDNSVLNDDYISVAPKPSHVKNIMHHENQYLQALQLVEDERYDYDRVLNTTESAIKILANFCEPTIHEHLETALQELERSKRIIKNALIIVYGKEHANLALDTLFKKLPTAAPVLLKRIKTKDQEWRRSKREWSKIWRQIEKKNAQAAFDDRYCRIEGRDRRGLSYSRILRDIDDIYQRQKHRIDGAKLGFQFTQVLCDSLIFLNILRLSDAQLTNSSFYSYADKGRISAVLKALLSQFFGIPLPREALETNLASENIESVKKHRDGLSKIFIRPESADNSNNTNVSFQTDETQTEDETMSDIHPDDVENHSKSKFLGEESKNIIGYNFFGNATMYVLFRLICVCYSRLEHIKLFVESSTIYASSTGGYENILNICEKYLKGSCSRLEFRKYLQKFNNETCYMICSIERLLKVIFYRIHEILLDPKLGQLLLLFESDGANSVTTPREQMVYRNHVESILAPESKIFNMRWYPLEKRLCIQQLLPADLTMHDFENPAKAFMYYVDSYAISHITEGVDLMQVKMPFLRRSLQRISQQGYLAGRGSGRLHSLFNEHFCKSNLQLFFSTDTYVIFFEPNTENVYINSYNLWVDQSSQSKKQNRTTNWRRWLESDEGWRKSKANTDIKFFSETTLDQCIEAM
B2: Sp_Cti6p (protein, UniProt Q1MTR4 1-424)
chain: MPSNSTPANEEKEEESEKIQKSPVDTPHTPNGSVSDNEENETSSTGEVTRCVCGIVESDDEASDGGLYIQCDQCSVWQHGNCVGFADESEVPEVYYCEICHPEFHKVYQRGRGAKQSKYLGNGKPIEASQTEESSSTPPSPATKKSSKQRLTMNSRDAALDYEEYLAIAKEKSLIPRRSRGRTSSKSLSPPAPQDESQGTEINLKQKIEEENDEILEDSKESKDENEENKETSTTNVAETDAPEEETVDTVEEIADEEKHSVKEESGEASPQSSQQSTITSISTTTRSTRKAKREAAAEDKADLPAAVAPKPSKTRKVGGRRGKSSSNDNHRIPQLHPDGTFVETITKPKGLHSRITMTEMRRRVASMLEYIGHIQVEMAAQSAGNQSSTKSSKEGPEEEKETLRMVDNLTRDLLHWEQRFSRT
B3: Sp_Rxt3p (protein, UniProt O94707 1-351)
chain: MEEKTPENEQSKKTFDPKDSMKIEETSTNGSSQPSQPSNIKLSIGSILESSNDNGDPEYSENGMGNMNMNTLPMATSTPMSYTKQPSEAKYPNSVWERKGVSDQEENTSSVKRQKTLPTQSSGEEEAKYSHPGAPTATSADSISMESRPSNLSTSLSKTTSYPQFQVRQFVSPIISIDNSALEPFLNRYPASESLFPVTEYEYTPWLEFPLLYSSIGKFVRVTIDIKWLNAAINPRLCRREIWGTDVYTDDSDIATILAHCGCFSLLKPVRKIAVVDLYILPPLVHYKGTRKNQIESRSWSSRQDGISLKIKEVTWKPACASIFENSIHTLTLEERLQARLELSRSSTFKI
B4: SDS3 (S. pombe) (protein, UniProt Q9UTB6 1-267)
chain: MDVLSRVFDNEKEELDPLLNNPLTASEFRAKKAELEAELESIRNGTCKTLLDLADELRRSRDEELEIAERWRTFLVNRAQEEYEVEMKAAKEEYEYRCKTLKEMVLSHLNEKKRKIYEAKDMFDIGSESSTLLLHDASSQFIDRRKLRHRRNAGNQQNTQQLPSLNFFDDYLLFPTDETAVIPQSVKNAVRNSVNSVKPTSAEASLFSPLLSMANANPTNGRERDPRASERAERDREKAVEKGLSGATEEDIQSDLQLLKKELAKKK
B5: Sp_Dep1p (protein, UniProt Q9P7M1 1-491)
chain: MTENLQSESIPHEILPKEPFDLPMNNLKSSPKNKDSEKRINNSIAESEQVVDSALSNPETNANEDIIAPQLPSQNSEIIEKNSPVNKLNSSTSLTTHQLASLPKLEVTDHDNVSEAETVVLNEDEEKETSLVGSVSVTEDLGDSSAIGRTILVNNSVEPQMENTANITIVSPSLKESDFESEEKATNDNNGLIETNHNSKLEESSEHEEEEDEESNIERTEDSDHQIPQRGGTLEAPRKGGPRSGVGSRKRKRATVSRKWSTNSESKIKRVALETSQEESDREIADRRSASEQAHEADDEKAIKRKEAFDALLNIETEFTFLRNRLYGKKLLKLNEHEEMIQNETHERFNACIDLITERRDDRVRLATENLMKQLGNIKNVMDYVTKQRKYQLLFDKRRIRQALLTKIATKCFQLLNKQKSVHDPTYITQKTMSYRQSALLQKQRIEYEAAVLCELNSFAGFPTAPIIETASFDDIRNDLLEMGCLSENQD
B6: LAF1 (S. pombe) (protein, UniProt O13719 1-297)
chain: MKSSQTLVYSIPRNVEKDTCAAAIKAYQYLISPPPSPIPNDKVASTVDVPKCSTIPESPKDSIVEPKPTATPVAQLHSKVYDLYRDSPKIWLRRERQWLQRHSPAYRFSTPAAKRPRRQPSSFLDVHASNTRKRGSPDTPDSGHSTPHSKGDVHPGMPQHNTRFKQSSREFSSNTQAIDVANTPYELLPDYSPDMSVLDKRSHPRPLRSEWKGPPLDLSNDENRHLLHPAELQLAATLRLPCLVYLDNKRRIFAEWHNRRTQGLSFRKTDAQRASRVDVNKASRLWKAFHDEGFFDD
B7: LAF2 (S. pombe) (protein, UniProt O74443 1-272)
chain: MQILKDQENLNPDGGSFVLITPPLSPPKQKSLSYTNISRRHGMRACMKGIVYEVYKNQPKLWLQQELIWLRRKRIHPIPKARRNNHVGRWANRHSNVSSSSGSRGRSSVSSRDSSPSYSGALRSAERSISSSPSTIEARRRKSARGNGLNGAIDVANLPFEELPNFCPDMSVLDNRTHPRTLKAEWKGPPLDLSDDPYRDLLHPAELHLASTLRLPCLIYLDNKKRIFAEWHHRRQQGLTFRKTDAQRASRVDVNKASRLWKAFHEVGFFDD
B8: IES2 (S. pombe) (protein, UniProt O14210 1-295)
chain: MARRRSTRRALVETPSDLNAQDSDSLSVSTKEELGDDALAAEEGQSVLDEQEIEEALEEDDTNYEEDIIDDEESAQVDEEELEEEEEEEEDATPEPVVTSKKNSRSKPKNGGASKRKASRRTVVDEDSENLEGDEEDGSFSDLKDLYSNPMPAQTTPVSMRMTKRQRAIQGILEEGEEDELLELPPETSGRKKLTPEEMALRRIENARRRKNQSERRLEEEKMETINRLLKRQSNTGKPRRGRAPNNPTSDSISRSKAVPKDRINMYQPFQCVRFKSTKEGSSLGVPEPLIRFFS
B9: IES4 (S. pombe) (protein, UniProt Q9P7S9 1-194)
chain: MSETLVLHLKVPTERFREVLSSLKEKQNFTASPSSQPKPQERPFQMKKPRAPYGMGPRAMKRREKAEKEKLGVVNDELAESSKPSSGAATPTRSAPKSSAGLINSGLRALDRSGKPCRRWEKKPISIRSISTIVWKLPLWIGTPDSIPNTPELPVKTTLDSVNEIAAALSTHAESSPMDATSPVDSMPESATGI
B10: ARP5 (S. pombe) (protein, UniProt Q9Y7X8 1-721)
chain: MKIYAVREPVFSGPTPSFQNVSNDIPLVIDNGSWQLRAGWGGEKDPKLVFDNLVSRYRDRKLSRTSTLVGNDTLIEVGSRSIARSPFERNVISNWDLMEQVLDYTFLKLGIDRMEHPICMTEPLANPTYVRSTMTELLFELYNAPSVAYGIDGLFSFYHNTKPSSSGIVLNLGNAASHVIPVLNGERILSEAKRISWGGSQSSSYLLKLFQIKYPSFPIKMLPSQAELLMHDHCHVSSDYTHDIAHALDRDILERDEIVLQFPYTEAAAQEKSQEELELIAERKRESGRRLQAQAAIKRKEKAAERDRELATLTELQQQSLVLSRRAFQRALEEAGFEDESQLNAQVKNVQAKIRRAQRDQQRQEESEGSLDVTEIDVEQAFPLLNVPDAELDEAGLRQKRHQRLMKANYDARVRAKAEKAIEEAAEAERAEADERLRLENFSTWVNEKRETHKILLEKISKNKRLKFELNDRKSHASQMRMKSLATLASEQPIQKRKRKDQSEDNFGARDEDWKVYHDVLTAEQLEEERKKLLDQIYSLEKQLLEYDSQFTQANTYDTLNDPRATLLYAFTRGVSDFDVNDVAQAFQLHLNVEQIRVPEVIFSPSIVGIDQAGILEIMRSILQRHSLEEQQKLVSNVLITGGLGSLPGMETRIKRELTSIMPVGSSINVFRASNPLLDAWKGASEWSVTEKFKAAKVTREEYLEKGPEYIKEHSLGNINS

The binders below were run against T1, Clr6p (S. pombe) (S. pombe) (assay: affinity purification with mass spectrometry; TAP of baits TAP-tagged at their genes from S. pombe extracts; eluates on 6-18% gels, Coomassie, bands and slices identified by MALDI peptide mapping and LC-MS/MS; common background removed, A-index cut-off 1.75).

binding, binds:
B1
B2
B3
B4
B5
B6
B7

Each binder was assayed against T2, IES6 (S. pombe) (S. pombe) in the same assay as above.

binding, binds:
B8
B9
B10

The binders below were run against RVB1 (S. pombe) (S. pombe) (UniProt Q9C0X6) in the same assay as above.

binding, binds:
B8
B9

These binders were tested against T3, Sp_Png2 (S. pombe) in the same assay as above.

binding, binds:
B1
B2
B3
B4
B5
B6
B7
